Data taken from PubChem BioAssay AID504408 (Broad Institute, 2011).
Out of some 300,000 compounds screened, about 5,200 (1.7%) were called active. Inconclusive means that the source gave no clear call. Such entries were picked first, then a sample of the others.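 How the source made its calls: active means mean replicate activation of at least 50% with a set share of replicates each reaching 50%; inconclusive means only one of those two conditions met; inactive means mean below 50% and too few replicates reaching it.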

Assay: HSF-1 activators, primary screen, NIH3T3-HGL cells, MG132 stress, luminescence, single point (AID 504408);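 further: 0% = median of the neutral control wells and 100% = twice that signal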
Conditions: NIH3T3-HGL HSF-1 luciferase reporter, MG132, 8 h; at 9 µM; hits give high values; 100% = twice DMSO control signal

Row | SMILES | activation
1 | O=S(=O)(Nc1cc(Sc2cccc3cccnc23)c(O)c2ccccc12)c1ccccc1 | active: 204%
2 | O=C(N/N=C/c1cccnc1)c1cc2ccccc2cc1O | inconclusive: 53.5%
3 | CSc1ccccc1-n1nnnc1SCC(=O)NCc1cccs1 | inconclusive: 50%
4 | COc1ccc(NC(=O)C(=O)NNC(=O)c2cccs2)cc1 | inconclusive: 64.5%
5 | N/C(=N\OC(=O)COc1ccc2ccccc2c1Br)c1ccncc1 | inconclusive: 52.3%
6 | COc1ccc(S(=O)(=O)N2CCC(C(N)=O)CC2)cc1C(=O)N1CCCCCC1 | inactive: 9.86%
7 | Cn1cc([N+](=O)[O-])c(C(=O)Nc2ccc(C(=O)N3CCCCC3)cc2)n1 | inconclusive: 53.2%
8 | COc1ccc(NC(=O)c2cc(-c3ccccc3Cl)no2)cc1 | inactive: 14.4%
9 | CCCCc1c(O)nc(SCC(=O)N2CCOCC2)n(-c2ccccc2OC)c1=O | inconclusive: 50.8%
10 | Cc1ccc(Nc2nnc(SCC(=O)Nc3cccc(S(=O)(=O)NC4=NCCCCC4)c3)s2)cc1 | active: 85.7%
11 | CS(=O)(=O)c1ccc2nc(NC(=O)Nc3cccc(Cl)c3)sc2c1 | active: 98.6%
12 | COc1ccc(N2C(=O)CSC2c2ccncc2)cc1 (stereo unspecified) | inconclusive: 52.2%
13 | CC(=O)Oc1c(Cl)cc(Cl)cc1/C=C/c1ccc2ccccc2n1 | active: 161%
14 | O=C(CCc1ccc(S(=O)(=O)N2CCOCC2)cc1)N1CCN(Cc2ccc3c(c2)OCO3)CC1 | inconclusive: 52%
15 | O=C(Nc1ccc2c(c1)OCO2)c1ccc(Cl)s1 | inconclusive: 52.1%
16 | CC(=O)c1c(C)[nH]c(C(=O)Nc2ccc(C)c(S(=O)(=O)Nc3ccc(C)cc3C)c2)c1C | inactive: 14.6%
17 | COc1cc(/C(C)=N/NC(=O)CSc2nncn2C)ccc1OCc1ccccc1Cl | inconclusive: 50.6%
18 | O=C(CCCN1C(=O)S/C(=C\C=C\c2ccccc2)C1=O)Nc1ccc(O)cc1 | inconclusive: 57.6%
19 | CCN(CC)C(=O)Oc1ccc(Br)cc1C(=O)Nc1ccc(F)cc1F | active: 72.4%
20 | COC(=O)c1ccc(-c2ccc(F)cc2)nc1C | inconclusive: 53.2%
21 | O=C1CCOc2cc(OCc3ccccc3)ccc21 | inconclusive: 51.5%

Row | SMILES | activation
22 | CC(=O)N1CCc2cc(S(=O)(=O)NCCCN3CCCCC3)ccc21 | inactive: -5.51%
23 | Cc1ccc(C)c(OC(=O)c2cccnc2Cl)c1C | inactive: 4.29%
24 | CNc1oc(/C=C/c2ccccc2)nc1C#N | inactive: -1.59%
25 | CCn1c(SCC(=O)N2CCCc3ccccc32)nc2cccnc21 | inactive: -7.78%
26 | COc1cc(CNCc2ccccc2Cl)ccc1OCC(=O)NC1CCCCC1 | inactive: 19.4%
27 | C/C=C(/C)C(=O)Nc1cccc(C2=NOC3(C2)C[C@@H](C(N)=O)N(C(=O)CC)C3)c1 (stereo partly specified) | inconclusive: 53.8%
28 | COc1ccc(NC(=O)[C@H](Cc2c[nH]c3ccccc23)NC(=O)[C@@H]2Cc3ccccc3CN2)cc1 | inactive: -3.96%
29 | CN1C(=O)C2(Oc3ccccc3C3CC(c4ccccc4)=NN32)c2ccccc21 (stereo unspecified) | active: 76.2%
30 | N#CCCN1CCN(C(=S)c2ccc(-c3cccc(Cl)c3)o2)CC1 | inconclusive: 50.3%
31 | CCn1c2ccccc2c2cc(NC(C)=O)ccc21 | inactive: 18.6%
32 | S=C(NC1CCCCC1)NC1CC2C=CC1C2 (stereo unspecified) | active: 85.2%
33 | CC(=O)N(c1ccccc1)c1nc(/C=C/C(=O)O)cs1 | inconclusive: 59.7%
34 | COc1cc(NCc2ccccc2O)c2ncccc2c1 | inconclusive: 55%
35 | COc1cc(/C=C(\C#N)c2nc3ccccc3[nH]2)ccc1Oc1ccc([N+](=O)[O-])cn1 | active: 62.2%
36 | N#C/C(=N\Nc1cccc(F)c1)C(=N)N1CCCCCC1 | inconclusive: 52.5%
37 | Cc1ccsc1C=Nc1ccc(O)cc1 | inactive: 3.27%
38 | C(=N\Nc1nc2ccccc2s1)/c1cccs1 | inconclusive: 50.4%
39 | Cc1ccc(C(=O)N/N=c2\sc3ccccc3n2C)cc1 | inconclusive: 51.7%
40 | COc1cccc(CNC(=O)Cn2nc(C)c([N+](=O)[O-])c2C)c1 | inconclusive: 62.9%
41 | CCOc1ccc(/C=C/[N+](=O)[O-])c2ccccc12 | active: 75.6%
42 | COc1ccccc1C1N=C(c2ccccc2C)NO1 (stereo unspecified) | inconclusive: 51.7%

Filtered by structure: the entries above containing four or more nitrogen atoms
Row | SMILES | activation
3 | CSc1ccccc1-n1nnnc1SCC(=O)NCc1cccs1 | inconclusive: 50%
7 | Cn1cc([N+](=O)[O-])c(C(=O)Nc2ccc(C(=O)N3CCCCC3)cc2)n1 | inconclusive: 53.2%
10 | Cc1ccc(Nc2nnc(SCC(=O)Nc3cccc(S(=O)(=O)NC4=NCCCCC4)c3)s2)cc1 | active: 85.7%
17 | COc1cc(/C(C)=N/NC(=O)CSc2nncn2C)ccc1OCc1ccccc1Cl | inconclusive: 50.6%
25 | CCn1c(SCC(=O)N2CCCc3ccccc32)nc2cccnc21 | inactive: -7.78%
27 | C/C=C(/C)C(=O)Nc1cccc(C2=NOC3(C2)C[C@@H](C(N)=O)N(C(=O)CC)C3)c1 (stereo partly specified) | inconclusive: 53.8%
28 | COc1ccc(NC(=O)[C@H](Cc2c[nH]c3ccccc23)NC(=O)[C@@H]2Cc3ccccc3CN2)cc1 | inactive: -3.96%
35 | COc1cc(/C=C(\C#N)c2nc3ccccc3[nH]2)ccc1Oc1ccc([N+](=O)[O-])cn1 | active: 62.2%
36 | N#C/C(=N\Nc1cccc(F)c1)C(=N)N1CCCCCC1 | inconclusive: 52.5%
40 | COc1cccc(CNC(=O)Cn2nc(C)c([N+](=O)[O-])c2C)c1 | inconclusive: 62.9%

(further entries)

Row | SMILES | activation
43 | O=C(CCc1ccccc1)Oc1ccccc1[N+](=O)[O-] | inconclusive: 50.5%
44 | CN1C2CCC1/C(=C\c1ccccc1F)C(=O)/C2=C/c1ccccc1F | active: 106%
45 | CC1=CC(=C(C#N)C#N)C=C(C)N1CCC(C)C | inactive: 2.07%
46 | COc1ccc(C(O)(C(=O)NNc2ccc(C)cc2)c2cccs2)cc1 (stereo unspecified) | inconclusive: 59.7%
47 | O=C(NNc1c(F)c(F)cc(F)c1F)c1ccc(Cl)nc1 | inconclusive: 50.5%
48 | Cc1ccnc(N/C=C/C(=O)c2ccc(Br)cc2)c1 | inconclusive: 53.7%
49 | COc1cccc(C(=O)N/N=c2\sc3ccccc3n2C)c1 | active: 81.1%
50 | CC(C)(C)c1csc(NC(=O)Nc2ccccc2)n1 | inconclusive: 55.2%
51 | C=CCN(CC=C)c1cnn(-c2nc3ccccc3[nH]2)c(=O)c1Cl | inconclusive: 53.5%
52 | COc1ccc(NC2CCCN(C(=O)CCc3cccc(Cl)c3)C2)cc1 (stereo unspecified) | inactive: 22.7%
53 | Cc1cccc(N2CCN(C(=O)c3cc(C)oc3C)CC2C)c1 (stereo unspecified) | inconclusive: 52.3%
54 | O=C(NCCc1nc2ccccc2[nH]1)c1ccc(Cl)c([N+](=O)[O-])c1 | inconclusive: 63.8%
55 | COc1ccccc1C(=O)Nc1nnc(-c2ccccc2)s1 | inconclusive: 55.4%
56 | C(=C\c1nnc(-c2cccs2)o1)/c1ccccc1 | inconclusive: 54.3%
57 | CCC(CO)NCC#Cc1ccccc1 (stereo unspecified) | active: 62.1%
58 | CCC(C)c1ccc(NC(=O)c2cccs2)cc1 (stereo unspecified) | inconclusive: 52.5%
59 | O=C(CSc1nnc(-c2ccncc2)n1Cc1ccco1)c1ccc(Cl)cc1 | inconclusive: 54.9%
60 | C=CCn1c(SCc2csc(C)n2)nc2scc(-c3ccc(C)o3)c2c1=O | inconclusive: 53.5%
61 | CCc1c(C)[nH]c(C(=O)OCc2ccccc2)c1C | inconclusive: 52%
